# Assay results: publication PMC7862700
# This is a selection; strong and weak results do not stand in their true shares. For some assays here: At the low end of the ranking the order means little.
# Target: T1, ELK3 (UniProt P41970)
# T1 sequence: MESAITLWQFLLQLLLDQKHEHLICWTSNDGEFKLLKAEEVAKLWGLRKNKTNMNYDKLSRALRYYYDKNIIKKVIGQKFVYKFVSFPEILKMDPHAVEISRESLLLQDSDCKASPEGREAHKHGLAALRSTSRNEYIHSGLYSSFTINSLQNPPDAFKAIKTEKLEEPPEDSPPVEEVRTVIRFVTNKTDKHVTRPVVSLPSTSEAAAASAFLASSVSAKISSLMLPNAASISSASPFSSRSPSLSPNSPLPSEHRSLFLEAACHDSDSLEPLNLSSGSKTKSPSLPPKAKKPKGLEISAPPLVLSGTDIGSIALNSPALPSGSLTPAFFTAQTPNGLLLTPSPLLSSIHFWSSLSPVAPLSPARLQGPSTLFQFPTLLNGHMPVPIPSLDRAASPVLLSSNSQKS
# Test: DAPPL (digital affinity profiling via proximity ligation, sequencing)
# Settings: 10 mM Tris-HCl pH 7.5, 50 mM NaCl, 1 mM DTT, 4% glycerol, room temperature, 30 min; GST-TFs on glutathione beads, 16-mer random dsDNA library, 0.1% …; high values mean tight binding; double strand, one strand shown; scale: fold enrichment (6-mer frequency, TF over GST control)
row,Sequence,binding signal
1,TAGCCC,1.24
2,TTATAG,1.03
3,CCCGTT,1.18
4,AAGCGA,1.07
5,TGTAAA,1.09
6,GCTCAA,1.01
7,ATGAGC,1.19
8,TAAGCT,1.12
9,CGAGTT,1.14
10,GTAAAC,1.25
11,AAGTTT,1.44
12,CCTAGA,0.984
13,CGGCTT,1.12
14,AGGTAT,0.947
15,ATAGAA,1.13
16,TATCCT,1.76
17,ATCCTG,1.5
18,GAAATA,1.5

# Target: T2, SPIC (UniProt Q8N5J4)
# T2 sequence: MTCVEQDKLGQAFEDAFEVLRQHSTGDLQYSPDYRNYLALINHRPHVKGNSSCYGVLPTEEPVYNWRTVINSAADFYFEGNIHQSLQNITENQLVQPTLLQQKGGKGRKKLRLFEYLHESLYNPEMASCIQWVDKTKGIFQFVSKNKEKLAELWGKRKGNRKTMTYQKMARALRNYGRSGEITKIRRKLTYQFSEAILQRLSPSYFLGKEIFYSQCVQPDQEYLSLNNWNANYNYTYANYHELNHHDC
# Test: as above
# Settings: 10 mM Tris-HCl pH 7.5, 50 mM NaCl, 1 mM DTT, 4% glycerol, room temperature, 30 min; GST-TFs on glutathione beads, 16-mer random dsDNA library, 0.1% …; high values mean tight binding; double strand, one strand shown; scale: fold enrichment (6-mer frequency, TF over GST control)
row,Sequence,binding signal
1,TCTACG,1.3
2,TCTGTC,1.3
3,CAAATT,1.16
4,TAGCCC,1.23
5,AGACCT,0.977
6,TTCCTC,2.72
7,TTTCGA,1.18
8,TTATAG,1.38
9,AACAGC,1.05
10,CCCGTT,1.07
11,AGCTAA,0.963
12,AAGCGA,0.877
13,TGTAAA,1.24
14,GCTCAA,1.19
15,ATGAGC,1.29
16,ATGATT,1.17
17,TAAGCT,1.24
18,CGAGTT,0.883
19,CTTGGG,1.31
20,GTAAAC,1.23

row,Sequence,binding signal
1,GATGAC,1.15
2,AAGTTT,1.29
3,CCCCAT,1.41
4,TACATT,0.99
5,CCTAGA,0.894
6,CGCCTT,1.47
7,CGGCTT,1.13
8,ATACAG,1.14
9,ACATTC,1.22
10,AGGTAT,0.921
11,ATAGAA,1.03
12,AACCAT,0.999
13,TATCCT,1.87
14,TATTCA,1.47
15,CACTCT,1.22
16,ATCCTG,1.19
17,ATGGTT,1.33
18,GAAATA,1.43
19,AATGAT,1.1

# Target: T3, ETS2 (UniProt P15036)
# T3 sequence: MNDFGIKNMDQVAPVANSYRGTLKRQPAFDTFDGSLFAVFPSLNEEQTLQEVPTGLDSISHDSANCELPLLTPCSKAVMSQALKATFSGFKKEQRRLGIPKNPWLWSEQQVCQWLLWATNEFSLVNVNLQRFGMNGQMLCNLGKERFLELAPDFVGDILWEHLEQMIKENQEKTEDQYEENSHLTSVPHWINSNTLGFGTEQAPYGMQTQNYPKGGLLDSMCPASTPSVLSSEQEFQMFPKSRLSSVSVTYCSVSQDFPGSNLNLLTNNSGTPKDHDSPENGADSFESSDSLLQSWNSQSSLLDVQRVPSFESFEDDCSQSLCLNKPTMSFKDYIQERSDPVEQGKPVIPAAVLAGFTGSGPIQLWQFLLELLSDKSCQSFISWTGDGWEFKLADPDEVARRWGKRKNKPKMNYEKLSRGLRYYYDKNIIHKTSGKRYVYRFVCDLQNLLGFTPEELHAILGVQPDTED
# Test: as above
# Settings: 10 mM Tris-HCl pH 7.5, 50 mM NaCl, 1 mM DTT, 4% glycerol, room temperature, 30 min; GST-TFs on glutathione beads, 16-mer random dsDNA library, 0.1% …; high values mean tight binding; double strand, one strand shown; scale: fold enrichment (6-mer frequency, TF over GST control)
row,Sequence,binding signal
1,TAGCCC,1.14
2,CCCGTT,1.1
3,AAGCGA,1.05
4,ATGAGC,1.26
5,CGAGTT,1.07
6,ATAGAA,1.07
7,ATCCTG,1.56

# Target: T4, ETV3 (UniProt P41162-2)
# T4 sequence: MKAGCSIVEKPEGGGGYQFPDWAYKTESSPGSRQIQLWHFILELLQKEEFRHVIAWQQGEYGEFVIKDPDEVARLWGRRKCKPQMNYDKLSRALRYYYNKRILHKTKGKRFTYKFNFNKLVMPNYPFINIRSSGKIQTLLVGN
# Test: as above
# Settings: 10 mM Tris-HCl pH 7.5, 50 mM NaCl, 1 mM DTT, 4% glycerol, room temperature, 30 min; GST-TFs on glutathione beads, 16-mer random dsDNA library, 0.1% …; high values mean tight binding; double strand, one strand shown; scale: fold enrichment (6-mer frequency, TF over GST control)
row,Sequence,binding signal
1,TCTACG,1.32
2,TCTGTC,1.05
3,CAAATT,1.13
4,AGACCT,0.954
5,TTCCTC,2.38
6,TTTCGA,1.41
7,TTATAG,0.985
8,AACAGC,1.13
9,AGCTAA,1.1
10,TGTAAA,1.2
11,ATGATT,1.3
12,TAAGCT,1.2
13,CTTGGG,1.26
14,GTAAAC,1.3
15,GATGAC,1.56
16,AAGTTT,1.53

row,Sequence,binding signal
1,CCCCAT,1.31
2,TACATT,1.2
3,CCTAGA,0.979
4,CGCCTT,1.45
5,CGGCTT,1.15
6,ATACAG,1.18
7,ACATTC,1.31
8,AGGTAT,1.11
9,AACCAT,1.16
10,TATCCT,1.8
11,TATTCA,1.23
12,CACTCT,1.43
13,ATGGTT,1.34
14,GAAATA,1.54
15,AATGAT,1.21
